One molecule from PMC4889046 (PLoS ONE, 2016) can be followed below.

This experiment has as its target APOBEC4 fused to three C-terminal HA-tags (A4-HA) (human) (UniProt Q8WW27). The experiment in a line: cross-linking.

Results are given in words; binding and its absence hold for the method and conditions named. Binding seen in cells or lysates may run through a third protein. Some results given as binding are weak or reduced against the parent protein; the word gives no strength. Tags and fused reporters may be left off the sequences shown.

B1: APOBEC4 fused to three C-terminal HA-tags (A4-HA) (natural protein, human, UniProt Q8WW27 1-367, looked up)
chain: MEPIYEEYLANHGTIVKPYYWLSFSLDCSNCPYHIRTGEEARVSLTEFCQIFGFPYGTTFPQTKHLTFYELKTSSGSLVQKGHASSCTGNYIHPESMLFEMNGYLDSAIYNNDSIRHIILYSNNSPCNEANHCCISKMYNFLITYPGITLSIYFSQLYHTEMDFPASAWNREALRSLASLWPRVVLSPISGGIWHSVLHSFISGVSGSHVFQPILTGRALADRHNAYEINAITGVKPYFTDVLLQTKRNPNTKAQEALESYPLNNAFPGQFFQMPSGQLQPNLPPDLRAPVVFVLVPLRDLPPMHMGQNPNKPRNIVRHLNMPQMSFQETKDLGRLPTGRSVEIVEITEQFASSKEADEKKKKKGKK
notes: also called A4-3xHA; pA4-HA; not shown: 3xHA, C-terminal, kept
As for B1, the binding entry was “binds”.
